The results in this text go back to the RNAGym collection of RNA variant scans (doi:10.1126/science.aae0568).

B1: tRNA (parent)
chain: GUUCCGUUGGCGUAAUGGUAACGCGUCUCCCUCCUAAGGAGAAGACUGCGGGUUCGAGUCCCGUACGGAACG

This sample is rich in variants without activity.

The data set covers variants of B1. The experiment in a line: yeast fitness relative to wild type (ratio to wild type); higher = fitter; tRNA-Arg(CCU), competitive growth, 37 C, YPD. The method in brief:
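Amplicons of the tRNA-Arg(CCU) gene were sequenced, 100-nucleotide paired-end, from the start population and from each end population of a pooled yeast competition. The competition, in six parallel replicates, lasted 24 hours in YPD at 37°C. Fitness relative to wild type was calculated from changes in genotype frequencies. Genotypes had to have ≥ 100 starting reads, and estimates < 0.5 were set to 0.5.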
As to GUUCCGUUGGCGUAAUGGUACCGCGUCUCCCUCCUAAGGAGAAGACUGCGGGUUCGAGACCCGUUCGGAACG [A21C U59A A65U], the yeast fitness is at most 0.5.

GUUCCGUUAGCGUAAUGGUAACGCGUCUCCCUCCUAAGCAGCAGACUGCGGGUUCGAGUCCCGUACGGAACG [G9A G39C A42C]: the yeast fitness was at most 0.5.

In the case of GUUCGGUUGGCGUAAUAGUAACGCGCCUCCCUCCUAAGGAGAAGACUGCGGGUUCGAGUACCGUACGGAACG [C5G G17A U26C C60A], the yeast fitness is at most 0.5.

In the case of GUUCCGUUGGCGUAAUGGUAACGCGUCUCCCUCCCAAGGAGAAGACUGCGGGUUCGAGUUCCGUACGUAACG [U35C C60U G68U], the yeast fitness is at most 0.5.

Regarding GUUCCGUUGGCGUAAUGGUAACCCCUCUCCCUCCAAAGGAGUAGACUGCGGGUUCGAGUCCCGUACGGAGCG [G23C G25C U35A A42U A70G], the yeast fitness was at most 0.5. GUUCCGUUGGCGUAUUGGUGACGCGUUUCCCUCCUAAGGAGAAGACUGCGGGUUCGAGUCCCGUACGGAACG [A15U A20G C27U]: the yeast fitness is at most 0.5. The figure for GUUGCGUUGGCGUAAUGGUAACGCGUCUCCCUCCUAAGGAGAAGACUGCGGGUUCAAGUCCGGUACGGAACG [C4G G56A C62G] is at most 0.5; for GUCCCGUUGGCGUAAUGGUAACGCGUCUCCUUCCUAAGGAGAAGACUGCGGGUUCGAGUCCUGUACGGAACG [U3C C31U C62U] it is 0.804.

Turning to GUUCCGUUGGCGUAAUGGUACCGCGUCUCCCUCCUAAGGAGAAGACUGCGGGUUCGAGCCCCGUCCGGAACG [A21C U59C A65C], the yeast fitness was at most 0.5. The figure for GUUGCGUUGGCGUAAUGGUAUCGCGUCUCCAUCUUAAGGAGAAGACUGCGGGUUCGAGUCCCGUACGGCACG [C4G A21U C31A C34U A69C] is at most 0.5. With GUUCCGUUGGCGUACGGGUAACGCGUCUCCCUCCUACGGAGAAGACUGCGGGUUCGAGUCCCGUAAGGAACG [A15C U16G A37C C66A] the figure was at most 0.5. Take GUUCCGUUGGCGUAAUGGUAACGCGUCUCCCUCGUAAGGAGAAGACUGGGGGUCCGAGUCUCGUACGGGACG [C34G C49G U54C C61U A69G]: the yeast fitness is at most 0.5.

In the case of GUUCCGUUGGCGUACUGGUGACGCGUCUCCCUCCUAAGGAGAAGACUGCGGGUUCGAGUCCCGUACGCAACG [A15C A20G G68C], the yeast fitness is at most 0.5.

As for GAUCCGUUGGCGUAAUGGUAACGCGUCUCCCUCCUAAGCAGAAGACUGCGGGUUCGAGUCCCGUACGGAGCG [U2A G39C A70G], the yeast fitness is at most 0.5. For GUUCCGAUGGCGUAAUGGUAACGCGUCUCUCUCCUAAGGAGAAGACUGCGGGUUCGAGUCCCGUACAGAACG [U7A C30U G67A], the yeast fitness is at most 0.5. Turning to GUUCCGUUGGCGUACUGGUAACGCGUCUCCAUCCUAAGGAGAAGACUGCAGGUUCGAGUCCCGUACGGAACG [A15C C31A G50A], the yeast fitness is at most 0.5.

Regarding GUUCCGUUGCCGUACUGGUAACGCGUGUCACUCCUAAGGAGAAGACUGCGGGUUCGAGCCCCGUACGGAACG [G10C A15C C27G C30A U59C], the yeast fitness was at most 0.5. On to GUUCCAUUGGGGUAAUGGUGACGCGUCCCCCUCCUAAGGAGAAGACUGCGGGUUCGAGUCCCGUACGGAACG [G6A C11G A20G U28C], for which the yeast fitness is at most 0.5. The figure for GUUCCGUUGGCAUAAUGGUUACGCGUCUCCCUCCUAAGGAGAAGACUGCGGGUUUGAGUCUCGUACGGAACG [G12A A20U C55U C61U] is at most 0.5. The figure for GUUCUGUUGGCGUAAUGGUAACGCGUCUCCCUUCUAAGGAGAAGACUGCGGGUUCGAGUCCCCUACGGAACG [C5U C33U G63C] is at most 0.5; for GUUCCGUUGGCGUAAUGGUAAAGCGUCUCCGUCCUAAGGAGAAGACUGCGGGUUCGAGUCCCGUACGAAACG [C22A C31G G68A] it is at most 0.5; for GCUCCGUUGGCGUAAUGGUAACGCGUCUCACUCCUAAGGAGAAGACUGCGGGAUCGAGUCCCGUACGGAACG [U2C C30A U53A] it is at most 0.5. The figure for GUUACGUUGGCGUACUGGUAACGGGUCUCCCUCCUAAGGAGAAGGCUGCGGGUUCGAGUCCCGUACGGAACG [C4A A15C C24G A45G] is at most 0.5; for GUUCCGUUGGCGUAACGGUAACGCGUCUCCCUCCUAAGGAGAAGACUGCGGGUUCGAGACCCGUACGGAACG [U16C U59A] it is 0.852. As for GUUCCGUUGGCGUAAUGGUAACGCGUCUGCCUUCUAAGGAGAAGACUGCGGGUUCGACUCCCGUACGGAACG [C29G C33U G58C], the yeast fitness is at most 0.5. The figure for GUUCCGUUGGCGUAAUGGUUACGCGUCUUCCUCCUAUGGAGAAGACUGCGGGUUCGAGUCCCGAACGGAACG [A20U C29U A37U U64A] is at most 0.5; for GUCCCGUUGGCGUUAUGGUAUCGCGUCUCCCUCCUAAGGAGAAGACUGCGGGUUCGAGUGCCGUACAGAACG [U3C A14U A21U C60G G67A] it is at most 0.5; for GUUCCGUUGGCAUAAUGGUAACGCGUCUGCCUCCUAAGGAGAAGACUACGGGUUCGAGUCCCGUACGGAUCG [G12A C29G G48A A70U] it is at most 0.5. The figure for GUUCCGUUGGCGUAAUGGUGACGCGUCUCCCUCCUAAGGACAAGACUGCGGGUUCGAGUCCCGUACGGAUCG [A20G G41C A70U] is 0.622; for GAUCCGUUGGAGUAAUGGUAACGCGUCUCCCUCCUAACGAGAAGACUGCGGGUUCGAGUACCGUACGGACCG [U2A C11A G38C C60A A70C] it is at most 0.5. For GUUCCGUUGGCGUAAUGGUAACGCGUCUCCCUCCUAAGGAGAAGACUACAGGUACGAGUCCCGUACGGAACG [G48A G50A U54A], the yeast fitness was 0.597. As to GUUCCGUUAGCCUAAUAGUAAGGCGUCUCUCUCGUAAGGAGAAGACUGUGGGUUCGAGGCCCGUACGGAACG [G9A G12C G17A C22G C30U C34G C49U U59G], the yeast fitness was at most 0.5. For GCUCCGUUGGCGUAAUGAUAACGUGUCUCCCUCCUAAGGAGAAGACUGCGGGUUCGAGUCCCGUACGGAACG [U2C G18A C24U], the yeast fitness was 0.529. In the case of GUUCCGUUGGCGUAAUGGUAACGCGUCUCCCUCCUAUGGAGAAGACUGCGGAUUCGAGUCCCGUGCGGAACG [A37U G52A A65G], the yeast fitness is at most 0.5. With GUUUCGUUGGCGUAAUGGUAACGUGUCUCCCUCCUAAGGAGAGGACUGCGGGUUCGAGUCCCGUGCGGAACG [C4U C24U A43G A65G] the figure was at most 0.5. As for GUUCCGUUAGCGUAAUGGUAUCGGGUCACCCUCCUAAGGAGAAGACUGCGGGUUCGAGUCCCGUACGGAACG [G9A A21U C24G U28A], the yeast fitness was at most 0.5. With GUUCGGUUGGCGUAAUGGUAACGCCUCUCCCUCCUAAGGAGAAGACUGCGGGUUCGAGUCCGGUAGUGAACG [C5G G25C C62G C66G G67U] the figure was at most 0.5. Take GUUCCGUUGGCGUACUGGUAAUGCGUCUCCCUCCUAAGGAGUAGACAGCGGGUUCGAGUCCCGUAUGGAACG [A15C C22U A42U U47A C66U]: the yeast fitness is at most 0.5.
